PubChem BioAssay AID686943 – Drosophila RNAi Screening Center, 2013

Screen: 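Fly genes whose loss alters ERK activation after insulin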 (primary screen)
Cells: Drosophila S2R+ haemocyte-like cells expressing YFP-tagged ERK (Rolled)
Reagents: long dsRNA against Drosophila genes
Conditions: insulin stimulation versus unstimulated cells; dose and duration not given
Detection: 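Antibody staining for doubly phosphorylated ERK divided by ERK-YFP signal, as plate z-scores, in insulin-treated and untreated cells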
Scale: replicate 1, z-score of dpERK with insulin and replicate 2, z-score of dpERK with insulin: higher = more active ERK per ERK-YFP after insulin; replicate 1, z-score of dpERK under basal conditions: higher = more basal active ERK per ERK-YFP; replicate 1, z-score of ERK-YFP with insulin: higher = more YFP-tagged ERK signal
The screen tested about 23,000 reagents; shown is a random part of those with a known target gene and a result. 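Extra replicates exist only for a retested subset of genes; insulin dose and duration not given; both raised and lowered dpERK matter.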 The numbers tell different reagents against one gene apart. The record does not give: the amount of reagent, the time to read-out.

gene	dsRNA no.	replicate 1, z-score of dpERK with insulin	replicate 2, z-score of dpERK with insulin	replicate 1, z-score of dpERK under basal conditions	replicate 1, z-score of ERK-YFP with insulin
TAF1B	1	0.2	0.22	0.12	0.15
CG32669	1	0.81	1.38	0.69	0.29
CG42834	1	-0.57	-0.07	-0.2	0.34
CG15021	1	1.36	0.56	0.5	0.01
Syn	1	-0.51	1.09	0.17	0.38
gskt	1	0.67	0.84	1.65	0.11
CG15880	1	-0.01	0.03	1.51	-0.25
gb	1	-0.04	0.49	-1.22	0.27
CG7766	1	-0.14	-0.64	-0.02	0.06
tmod	1	-0.36	0.43	-0.96	0.27
tmod	2	-0.63	-0.19	-1.13	-0.24
tmod	3	2.1	-0.2	0.05	-0.03
tmod	4	-0.46	-0.06	-0.43	0.49
OS9	1	-0.65	-0.63	0.76	1.46
CG11999	1	0.05	-0.33	1.6	0.07
Hr38	1	0.01	0.31	-1.45	0.02
MED19	1	2.36	2.91	-1.47	-2.25
crm	1	-0.08	0.58	-0.1	-0.09
Dg	1	-0.88	0.26	-0.26	0.6
CG10068	1	0.61	-0.17	-0.06	-0.38
Arglu1	1	-0.33	0.51	-0.6	1.13
CG16972	1	0.14	0.27	1.36	0.32
Apl	1	0.05	-0.54	-0.21	-0.06
RpL36A	1	-1.01	-0.91	-2.21	-1.91
CG3649	1	1.41	0.49	0.79	-0.71
CG7685	1	-0.03	0.87	0.37	-0.87
CG12849	1	0.4	-0.81	-0.94	-0.03
CG14074	1	-1.3	-0.97	0.27	-0.18
CG12860	1	0.55	0.37	0.11	0.01
CG6149	1	0.23	0.87	0.1	0.19
tub	1	0.23	-0.12	0.08	-0.08
tub	2	0.12	0.71	-1.03	1.21
CG1468	1	-1.16	0.64	0	0.63
Scsalpha1	1	0.26	-1.28	0.63	0.16
sac	1	1.06	0.17	0.47	-0.03
Nf-YC	1	-1.72	-2.6	-3.29	-3.57
amon	1	-0.61	-0.14	-0.16	0.91
amon	2	0.66	0.01	0.92	-0.25
CG13670	1	0.25	-0.35	0.86	0.2
CG10939	1	0.27	1.53	-0.89	0.02
CG10939	2	0.08	2.46	0.26	0.1
wts	1	-0.64	-3.29	-2.63	-6.3
CR6900	1	-0.05	0.31	0.76	-0.09
CG11368	1	-0.01	0.55	0.01	-0.7
CG15012	1	-0.86	-0.81	0.34	0.87
CG14947	1	-0.2	0.47	0.77	0.68
CG34051	1	0.48	-0.9	1.53	0.17
CG32373	1	-0.16	0.14	1.15	-0.45
Kdm5	1	0.05	-0.03	-0.97	0.43
unc-119	1	-0.42	-0.55	0.22	0.68
CG18304	1	0.73	0.45	0.55	0.53
CG3294	1	-0.09	0.4	-0.17	-0.43
Mlc-c	1	-0.61	-0.58	0.32	-0.06
hdly	1	0.1	-0.21	0.9	-0.39
Vps28	1	-0.25	-1.12	1.33	0.26
ssx	1	-0.91	-2.95	3.42	-2.34
Acsx2	1	-0.26	-0.29	-0.26	-0.24
CG12507	1	0.63	-0.06	1.7	-0.48
CG6048	1	-0.07	0.01	0.46	0.68
CG9289	1	1	0.17	1.21	0.43
Slbp	1	0.45	0.42	0.52	-0.91
CG17108	1	0.21	0.67	-1.14	0.05
CG17108	2	-1.57	0.06	-0.28	0.95
Reepl1	1	1.15	0.46	0.05	0.29
CG30037	1	-0.2	0.08	0.93	-0.06
CG5890	1	-1.71	-0.1	-1.11	0.72
b	1	0.48	0.89	0.52	0.37
CG13056	1	0.93	-0.52	1.8	-0.19
CG17994	1	-0.24	-0.23	0.01	1.22
PDCD-5	1	-0.14	-0.02	-0.4	0.69
shot	1	-3.98	-2.8	-0.1	-0.52
shot	2	-1.46	-1.33	0.02	-0.64
shot	3	-0.1	0.6	-0.01	0.44

In a second layout: entries from further up.
{"gene": "tub", "dsRNA no.": 1, "replicate 1, z-score of dpERK with insulin": 0.23, "replicate 2, z-score of dpERK with insulin": -0.12, "replicate 1, z-score of dpERK under basal conditions": 0.08, "replicate 1, z-score of ERK-YFP with insulin": -0.08}
{"gene": "tub", "dsRNA no.": 2, "replicate 1, z-score of dpERK with insulin": 0.12, "replicate 2, z-score of dpERK with insulin": 0.71, "replicate 1, z-score of dpERK under basal conditions": -1.03, "replicate 1, z-score of ERK-YFP with insulin": 1.21}
{"gene": "CG1468", "dsRNA no.": 1, "replicate 1, z-score of dpERK with insulin": -1.16, "replicate 2, z-score of dpERK with insulin": 0.64, "replicate 1, z-score of dpERK under basal conditions": 0, "replicate 1, z-score of ERK-YFP with insulin": 0.63}
{"gene": "Scsalpha1", "dsRNA no.": 1, "replicate 1, z-score of dpERK with insulin": 0.26, "replicate 2, z-score of dpERK with insulin": -1.28, "replicate 1, z-score of dpERK under basal conditions": 0.63, "replicate 1, z-score of ERK-YFP with insulin": 0.16}
{"gene": "sac", "dsRNA no.": 1, "replicate 1, z-score of dpERK with insulin": 1.06, "replicate 2, z-score of dpERK with insulin": 0.17, "replicate 1, z-score of dpERK under basal conditions": 0.47, "replicate 1, z-score of ERK-YFP with insulin": -0.03}
{"gene": "Nf-YC", "dsRNA no.": 1, "replicate 1, z-score of dpERK with insulin": -1.72, "replicate 2, z-score of dpERK with insulin": -2.6, "replicate 1, z-score of dpERK under basal conditions": -3.29, "replicate 1, z-score of ERK-YFP with insulin": -3.57}
